Primary screen of a compound library

From ChEMBL document CHEMBL3988442, “University of Dundee, Small-Polar-MMV Screening Library” (2021).

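Phenotypic screen: M. tuberculosis growth, glucose 7H9 medium, 3 days; the read-out is not stated. Compounds at 50 µM. Direction is inferred from retests: higher values go with more growth inhibition. Size under these conditions: about 69,000 compounds, about 760 of them at 50% or above in at least one test.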

Results are given as percent effect. How 0% and 100% were set is not recorded. Most values in the screen are low, and negative values occur. This is an unselected part of the compounds tested. Two or more numbers in one place are separate tests of the same structure; such repeats can differ widely.

Compound	effect
CCCNC(=O)N1CCc2ccc(S(=O)(=O)N3CCCC3)cc2C1	1.102%
[H][C@@]12CCN(C(=O)c3ccccc3)C[C@@]1([H])O[C@H](c1nccs1)C2	5.389%
Cn1cnc2c1C(COCC1CC1)CN(C(=O)c1cccs1)C2 (centres undefined)	12.88% & -3.167%
Cn1ccnc1CN1C[C@@H](CN2CCCC2)[C@@H](CO)C1	1.233%
Cc1ncsc1CN1Cc2cnn(C)c2C(COCC2CC2)C1.O=C(O)C(F)(F)F.O=C(O)C(F)(F)F (centres undefined)	-1.755% & -10.62%
Cn1c2c(ccc1=O)CC(NC(=O)c1ccsc1)CC2 (centres undefined)	-16.3%
O=C(COCc1ccco1)Nc1cc(C(F)(F)F)c[nH]c1=O	14.99%
O=C(C1SCCc2sccc21)N1CCN(CC(F)F)CC1 (centres undefined)	-3.27% & -22.19%
CC(C)c1nnc2n1CCN(Cc1nc3c(F)cccc3[nH]1)C2	-9.137%
Cn1cc(CN(C(=O)C2COc3ccccc3C2)C2CC2)cn1 (centres undefined)	-1.727%
CN(C)c1nc(N)nc(CN2CCC(c3nc4ccccc4o3)CC2)n1	-2.976% & -24.45%
COC1CCCN(CCCc2cn[nH]c2)C1 (centres undefined)	26.91%
O=C(NCc1ccc(F)cc1)NCC(O)(c1cccs1)C1CC1 (centres undefined)	-13.88% & 6.525%
O=C(NC1(c2nnn(Cc3ccncc3)n2)CCCC1)c1ccccc1	23.62%
[H][C@@]12CS(=O)(=O)C[C@]1([H])N(Cc1nc3ccccc3[nH]1)CCN2CC=C(C)C	6.007% & 2.709%
CS(=O)(=O)N1CCN(c2ccc3ccc(C(=O)NC4CC4)cn23)CC1	-12.64%
COCCC1CCCCN1Cc1nc(C2CC2)no1 (centres undefined)	-12.28%
Cl.Cl.[H][C@@]12CNC[C@]1([H])N(Cc1ccsc1)CCO2	0.1455% & -2.07%
CCNC(=O)[C@@H]1CN(Cc2ccccc2)C[C@H]1C(=O)c1ccc(F)cc1	-0.4684%
O=C(O)C(F)(F)F.[H][C@@]12CCN(C3CCOCC3)C[C@]1(C(=O)N1CCOCC1)CCO2	14.42%
CS(=O)(=O)N1CCC(CNc2c(Cl)cccc2C#N)CC1	36.98%
Cc1occc1C(=O)N1Cc2nccn2CC(CN2CCCC2)C1.O=C(O)C(F)(F)F (centres undefined)	-6.849%
Cc1cc(S(C)(=O)=O)c(C)c(S(=O)(=O)NCC2CCC2)c1	17.56% & -2.737%
COC(=O)c1cc(OCC2CCC2)cc(C(=O)N[C@H](C)C(N)=O)c1	-17.08%
Cc1cc(C)n(CC2CN(CCOc3ccc(C#N)cc3)CCO2)n1 (centres undefined)	14.96%
COc1ccc(F)cc1CN(CC(N)=O)C(C)C	-20.24%
O=C(O)C(F)(F)F.[H][C@@]12CCN(CCOCc3ccccc3)C[C@@]1([H])[C@H](C(=O)N(C)C)CCO2	1.345%
O=C(Cc1ccc(F)cc1)NCCc1ccoc1	19.9%
Cn1cnc2c1CCN(Cc1c(Cl)ccc3cccnc13)C2	23.13%
NS(=O)(=O)Cc1cccc(C(=O)N2CCCC(n3cccn3)C2)c1 (centres undefined)	19.01%
[H][C@]1([C@H](O)c2ccc(NC(=O)COC)cc2)COCC(=O)N1CC	5.765% & -6.108%
CN(CC1=CCCN(CCc2ccccn2)C1)C(=O)c1ccco1	1.121%
COc1cccc(C(=O)Nc2ccc(OCCC(N)=O)cc2)c1OC	-3.987%
CCC(=O)N1CCN(C(=O)NC2CCc3ccccc3C2)CC1 (centres undefined)	-13.57%
COCCCN(C)c1cc(C(F)(F)F)nc(-c2cccnc2)n1	10.55%
O=C(NCc1cc[nH]n1)NCC(O)c1ccccc1F (centres undefined)	15.79%
O=C(NC1CC1)N1CCc2ncc(CN3CCOCC3)n2CC1.O=C(O)C(F)(F)F	-37.84%
COc1c(C)cnc(CN2CCOC(CNc3cccnn3)C2)c1C (centres undefined)	-26.72%
CSc1cccc(CNC(=O)[C@H]2CNC[C@@H](C(=O)N3CCOCC3)C2)c1	-8.943%
CN(Cc1ccsc1)C(=O)CN1CCCC1Cn1cccn1 (centres undefined)	30.67%
Cc1c(S(=O)(=O)NCC(C)Cn2cc(Cl)cn2)cnn1C (centres undefined)	-6.008%
CCN1CCCC1CN(Cc1ccon1)CC1CCN(CCOC)CC1 (centres undefined)	26.77%
COc1cc(CC2CC(c3ccc4c(c3)OCO4)=NO2)cc2c1OCO2 (centres undefined)	16.64%
C[C@@H]1CN(C(=O)c2cccn2C)C[C@]12CCN(c1ccsc1)C2=O	-17.15%
CC(C)(C)c1nnc(CN2CCOC(Cn3cncn3)C2)o1 (centres undefined)	-22.83%
O=C(CCC1CCCN(C(=O)CCc2ccc(F)c(F)c2)C1)NC1CC1 (centres undefined)	-16.33%
CCNC(=O)N(C)C(c1ccccc1)c1ccccn1 (centres undefined)	8.477%
OCCCN1CCCC1c1cccc(Br)c1 (centres undefined)	10.57% & 8.016%
O=C(O)C(F)(F)F.O=S(=O)(C1CC1)N1CCOCC2(CCN(c3ccccn3)C2)C1 (centres undefined)	-3.836%
CC(CN1CCOCC1)NCc1nncn1C1CCCCC1 (centres undefined)	-14.58% & -7.202%
Cc1cnc(N2Cc3cnn(Cc4ccc(F)cc4)c3C2)nc1N(C)C	29.92%
Cc1ccccc1NC(=O)c1cncc(C2CCNCC2)n1.Cl	43.4%
COc1ccc(C2CC(=O)Oc3cc(C)[nH]c(=O)c32)cc1 (centres undefined)	-4.478%
O=C(O)C(F)(F)F.[H][C@]12CCN(C(=O)c3ccc(C)o3)C[C@@]1([H])OCCN(C1CCOCC1)C2	10.45%
CCOC(=O)CNC(=O)NCc1cccn1Cc1cccc(C)c1	26.84%
CCN(CC)Cc1cnc2n1CCN(Cc1c(C)noc1C)CC2.O=C(O)C(F)(F)F.O=C(O)C(F)(F)F	-27.73% & -8.742%
COc1ccc(-c2cnc(N(C)C)nc2C2CNCCO2)cc1.Cl (centres undefined)	17.24%
COc1ccccc1N1CCN(CC(=O)NC(C)c2ccco2)CC1 (centres undefined)	27.31%
O=C(CNC(=O)C1(c2ccc(F)cc2F)CCC1)Nc1cccnc1	-2.19% & -4.687%
O=C(O)C(F)(F)F.O=C(O)C(F)(F)F.[H][C@@]12C[C@@H](C(=O)Nc3cccnc3)CN(Cc3ccsc3)[C@]1([H])CCO2	-13.76%
Cc1nn(C)c(C)c1C1CCCN1Cc1nc(-c2ccco2)oc1C (centres undefined)	-20.07%
CCn1cc(CN(C)S(=O)(=O)c2ccc(NC(C)=O)cc2)cn1	2.198%
C=C(C)COc1cccc(C(=O)N2CCC3(CC2)CN(C)CCN3C)c1	-1.743%
CC1CCN(C(=O)c2ccn(COc3ccccc3)n2)CC1	24.41%
Cc1cccc(CN2CCOCC2c2[nH]ncc2C)n1 (centres undefined)	1.775%
CC(=O)NCc1cc2n(n1)CCN(Cc1cccc(CCN)c1)C2	6.901%
O=C(O)C(F)(F)F.[H][C@@]12CN(CC3CC3)C[C@]1([H])[C@@H](OC)CCN2C(=O)c1ccsc1	-11.34%
CCc1ccccc1OCCN1CCC(NS(C)(=O)=O)CC1	10.62%
O=C(O)C(F)(F)F.c1cncc(COC2COC3(CCN(c4cnccn4)CC3)C2)c1 (centres undefined)	-3.663% & 14.89%
CN1CCN(S(=O)(=O)c2ccccc2)Cc2cccnc21.O=C(O)C(F)(F)F	-4.777%
CC(C)NC(=O)N1CCN(C(=O)C2CCOCC2)CC2(CNC(=O)C2)C1 (centres undefined)	15.84%
CCOC(=O)N1CCC(NCC2CCN(c3cnn(C)c(=O)c3)C2)CC1 (centres undefined)	-7.089%
CSCc1noc(CNC(=O)C2CCN(C3CCCCC3)CC2)n1	5.107% & 2.353%
O=C(Nc1ccc(-c2cscn2)cc1)C1CCCN(Cc2ccon2)C1 (centres undefined)	-2.784%
c1ncn(CC2CCCN2Cc2csc(C3CCCCC3)n2)n1 (centres undefined)	14.99%
O=C(CCc1ccsc1)N1CCCC(N2CCNC2=O)C1 (centres undefined)	-4.158%
CC(C)CNC(=O)Cn1ccc2ccccc21	-45.43%
CN1CC(NC(=O)Nc2cnn(-c3ccccc3Cl)c2)CCC1=O (centres undefined)	-17.69%
[H][C@@]12CNC[C@]1([H])[C@H]2CN1CCC(c2nnc(CN(C)CCO)n2C)CC1	-0.1335%

Some entries from above, unchanged:

| Compound | effect |
|---|---|
| `CC(C)(C)c1nnc(CN2CCOC(Cn3cncn3)C2)o1` (centres undefined) | -22.83% |
| `CC(C)CNC(=O)Cn1ccc2ccccc21` | -45.43% |
| `CS(=O)(=O)N1CCN(c2ccc3ccc(C(=O)NC4CC4)cn23)CC1` | -12.64% |
| `CN(C)c1nc(N)nc(CN2CCC(c3nc4ccccc4o3)CC2)n1` | -2.976% & -24.45% |
| `CCCNC(=O)N1CCc2ccc(S(=O)(=O)N3CCCC3)cc2C1` | 1.102% |